These results are taken from the supplement of paper PMC4604168 (melanoma cell lines).

Some of the results follow. Repeats are few or missing, and single values can be far off.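 The apoptosis fraction was the count of cleaved-PARP antibody-stained nuclei relative to all DNA-stained nuclei, imaged in 1,536-well plates. Screening doses were set so most cells survived, and baseline and induced cleaved-PARP levels vary greatly across cell lines.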

The subject of the test is LOXIMVI. The test is described as follows: cleaved PARP positive nuclei fraction relative to DMSO control; melanoma cells; higher = more apoptosis. To be noted: library dose: low library concentration; 72 h.
Take `CN(NC(=O)CC(=O)NN(C)C(=S)c1ccccc1)C(=S)c1ccccc1` + CCCCCCCCCCCC1=C(O)C(=O)C=C(O)C1=O [Embelin] (first compound 0.006 µM, partner dose 1.2 µM): the “cleaved PARP positive nuclei fraction” value was 66.2%. For `COc1ccc2c(c1)CCC1C2CCC2(C)C(NCCCCCCN3C(=O)C=CC3=O)CCC12` (stereo unspecified) + O=c1cc(-c2cccc3c2Sc2ccccc2S3)oc(N2CCOCC2)c1 [KU55933] (first compound 0.4 µM, partner dose 1 µM), the “cleaved PARP positive nuclei fraction” value is 63%.

For `COc1ccc2c(c1)CCC1C2CCC2(C)C(NCCCCCCN3C(=O)C=CC3=O)CCC12` (stereo unspecified) + Oc1nc(-c2ccc(C(F)(F)F)cc2)nc2c1CSCC2 [XAV939] (first compound 0.4 µM, partner dose 2 µM), the “cleaved PARP positive nuclei fraction” value worked out at 97.5%. As to `O=C(O)c1ccc(-c2c[nH]c3ncc(-c4ccccc4)cc23)cc1C1CCCC1` + COc1ccc2c(c1)CCC1C2CCC2(C)C(NCCCCCCN3C(=O)C=CC3=O)CCC12 [U73122] (first compound 0.16 µM, partner dose 0.4 µM), the “cleaved PARP positive nuclei fraction” value came out at 132%. Turning to `CCc1ccc(CCOc2ccc(CC3SC(=O)NC3=O)cc2)nc1` (stereo unspecified) [pioglitazone] + Oc1nc(-c2ccc(C(F)(F)F)cc2)nc2c1CSCC2 [XAV939] (first compound 2 µM, partner dose 2 µM), the “cleaved PARP positive nuclei fraction” value worked out at 76.3%.

With `COc1cc2c(Oc3ccc4[nH]c(C)cc4c3F)ncnc2cc1OCCCN1CCCC1` [cediranib] + COc1cc2ncnc(Nc3ccc(Oc4ccccc4)cc3)c2cc1OC [SrcI1] (first compound 0.4 µM, partner dose 2 µM), the “cleaved PARP positive nuclei fraction” value worked out at 92.6%. The figure for `N#Cc1c(O)c2c(-c3ccc(-c4ccccc4O)cc3)csc2[nH]c1=O` + COc1cc2ncnc(Nc3ccc(Oc4ccccc4)cc3)c2cc1OC [SrcI1] (first compound 2 µM, partner dose 2 µM) is 31.1%; for `CN(NC(=O)CC(=O)NN(C)C(=S)c1ccccc1)C(=S)c1ccccc1` + CC(C)CCN1c2nc(Nc3cc(F)c(O)c(F)c3)ncc2N(C)C(=O)C1C [BID1870] (first compound 0.006 µM, partner dose 0.2 µM) it is 113%. The figure for `CCc1ccc(CCOc2ccc(CC3SC(=O)NC3=O)cc2)nc1` (stereo unspecified) [pioglitazone] + N#Cc1c(O)c2c(-c3ccc(-c4ccccc4O)cc3)csc2[nH]c1=O [A769662] (first compound 2 µM, partner dose 2 µM) is 82.2%. With `Oc1nc(-c2ccc(C(F)(F)F)cc2)nc2c1CSCC2` + CCCCCCCCCCCC1=C(O)C(=O)C=C(O)C1=O [Embelin] (first compound 2 µM, partner dose 1.2 µM) the figure was 32.4%; with `CCN(CC)CCCCNc1ncc2cc(-c3cc(OC)cc(OC)c3)c(NC(=O)NC(C)(C)C)nc2n1` + Cn1cc(/C=C2\C(=O)Nc3cccnc32)c2ccccc21 [GW441756] (first compound 0.1 µM, partner dose 0.4 µM), 48.2%. `CCc1ccc(CCOc2ccc(CC3SC(=O)NC3=O)cc2)nc1` (stereo unspecified) [pioglitazone] + Cn1cc(/C=C2\C(=O)Nc3cccnc32)c2ccccc21 [GW441756] (first compound 2 µM, partner dose 0.4 µM): the “cleaved PARP positive nuclei fraction” value was 23.3%. With `COc1ccc(COc2ccc(Cc3cnc(N)nc3N)cc2OC)cc1` + COc1cc2ncnc(Nc3ccc(Oc4ccccc4)cc3)c2cc1OC [SrcI1] (first compound 1 µM, partner dose 2 µM) the figure was 60%.

On to `O=S(=O)(c1ccccc1)N(CC(F)(F)F)c1ccc(C(O)(C(F)(F)F)C(F)(F)F)cc1` + COc1cc2ncnc(Nc3ccc(Oc4ccccc4)cc3)c2cc1OC [SrcI1] (first compound 1.4 µM, partner dose 2 µM), for which the “cleaved PARP positive nuclei fraction” value worked out at 67.1%. The figure for `COc1ccc2c(c1)CCC1C2CCC2(C)C(NCCCCCCN3C(=O)C=CC3=O)CCC12` (stereo unspecified) + Cn1cc(/C=C2\C(=O)Nc3cccnc32)c2ccccc21 [GW441756] (first compound 0.4 µM, partner dose 0.4 µM) is 135%; for `CN(NC(=O)CC(=O)NN(C)C(=S)c1ccccc1)C(=S)c1ccccc1` + Cc1cc([N+](=O)[O-])ccc1NS(=O)(=O)c1cc(Cl)ccc1Cl [FH535] (first compound 0.006 µM, partner dose 1 µM) it is 87.6%.

Take `N#Cc1c(O)c2c(-c3ccc(-c4ccccc4O)cc3)csc2[nH]c1=O` + c1cc(-c2cnn3cc(-c4ccc(OCCN5CCCCC5)cc4)cnc23)ccn1 [Dorsomorphin] (first compound 2 µM, partner dose 0.4 µM): the “cleaved PARP positive nuclei fraction” value came out at 31.1%. With `CCc1ccc(CCOc2ccc(CC3SC(=O)NC3=O)cc2)nc1` (stereo unspecified) [pioglitazone] + COc1ccc(COc2ccc(Cc3cnc(N)nc3N)cc2OC)cc1 [GW2580] (first compound 2 µM, partner dose 1 µM) the figure was 66.3%; with `COc1cc2c(Oc3ccc4[nH]c(C)cc4c3F)ncnc2cc1OCCCN1CCCC1` [cediranib] + CCc1ccc(CCOc2ccc(CC3SC(=O)NC3=O)cc2)nc1 [pioglitazone] (first compound 0.4 µM, partner dose 2 µM), 29.8%. As for `COc1ccc(-c2ccc3c(N4CCOCC4)nc(N4C[C@@H](C)O[C@@H](C)C4)nc3n2)cc1CO` + COc1cc2ncnc(Nc3ccc(Oc4ccccc4)cc3)c2cc1OC [SrcI1] (first compound 0.02 µM, partner dose 2 µM), the “cleaved PARP positive nuclei fraction” value amounted to 67.2%. With `O=C(O)c1ccc(-c2c[nH]c3ncc(-c4ccccc4)cc23)cc1C1CCCC1` + O=S(=O)(c1ccccc1)N(CC(F)(F)F)c1ccc(C(O)(C(F)(F)F)C(F)(F)F)cc1 [T0901317] (first compound 0.16 µM, partner dose 1.4 µM) the figure was 73.2%; with `COc1ccc(-c2ccc3c(N4CCOCC4)nc(N4C[C@@H](C)O[C@@H](C)C4)nc3n2)cc1CO` + CCN(CC)CCCCNc1ncc2cc(-c3cc(OC)cc(OC)c3)c(NC(=O)NC(C)(C)C)nc2n1 [PD173074] (first compound 0.02 µM, partner dose 0.1 µM), 23.3%. With `Oc1cc(-c2nc(-c3ccccc3)[nH]c2-c2ccncc2)ccc1Cl` + O=C1NC(=O)/C(=C/c2ccc(-c3ccc(F)cc3O)o2)S1 [AS252424] (first compound 0.2 µM, partner dose 1 µM) the figure was 60.4%; with `CCc1ccc(CCOc2ccc(CC3SC(=O)NC3=O)cc2)nc1` (stereo unspecified) [pioglitazone] + O=C(Nc1ccccc1)c1cc([N+](=O)[O-])ccc1Cl [GW9662] (first compound 2 µM, partner dose 2 µM), 25.6%; with `COc1ccc2c(c1)CCC1C2CCC2(C)C(NCCCCCCN3C(=O)C=CC3=O)CCC12` (stereo unspecified) + O=C(O)C(=O)Nc1sc2c(c1C(=O)O)CCNC2 [TCS401] (first compound 0.4 µM, partner dose 1.66667 µM), 29.6%. With `CN(C)S(=O)(=O)c1ccc2c(c1)/C(=C/c1cc3c([nH]1)CCCC3)C(=O)N2` + COc1cc(N2CCC(N3CCN(C)CC3)CC2)ccc1Nc1ncc(Cl)c(Nc2ccccc2S(=O)(=O)C(C)C)n1 [NVP-TAE684] (first compound 0.4 µM, partner dose 0.08 µM), the “cleaved PARP positive nuclei fraction” value came to 118%. The figure for `CN(C)S(=O)(=O)c1ccc2c(c1)/C(=C/c1cc3c([nH]1)CCCC3)C(=O)N2` + N#Cc1c(O)c2c(-c3ccc(-c4ccccc4O)cc3)csc2[nH]c1=O [A769662] (first compound 0.4 µM, partner dose 2 µM) is 117%; for `COc1ccc2c(c1)CCC1C2CCC2(C)C(NCCCCCCN3C(=O)C=CC3=O)CCC12` (stereo unspecified) + CC(C)CCN1c2nc(Nc3cc(F)c(O)c(F)c3)ncc2N(C)C(=O)C1C [BID1870] (first compound 0.4 µM, partner dose 0.2 µM) it is 219%. With `CCc1ccc(CCOc2ccc(CC3SC(=O)NC3=O)cc2)nc1` (stereo unspecified) [pioglitazone] + Oc1cc(-c2nc(-c3ccccc3)[nH]c2-c2ccncc2)ccc1Cl [L779450] (first compound 2 µM, partner dose 0.2 µM) the figure was 102%; with `CCc1ccc(CCOc2ccc(CC3SC(=O)NC3=O)cc2)nc1` (stereo unspecified) [pioglitazone] + CC(C)CCN1c2nc(Nc3cc(F)c(O)c(F)c3)ncc2N(C)C(=O)C1C [BID1870] (first compound 2 µM, partner dose 0.2 µM), 34%; with `CN(NC(=O)CC(=O)NN(C)C(=S)c1ccccc1)C(=S)c1ccccc1` + O=c1cc(-c2cccc3c2Sc2ccccc2S3)oc(N2CCOCC2)c1 [KU55933] (first compound 0.006 µM, partner dose 1 µM), 810%. For `O=C(O)c1ccc(-c2c[nH]c3ncc(-c4ccccc4)cc23)cc1C1CCCC1` + Oc1nc(-c2ccc(C(F)(F)F)cc2)nc2c1CSCC2 [XAV939] (first compound 0.16 µM, partner dose 2 µM), the “cleaved PARP positive nuclei fraction” value came out at 41.6%.

Consider `COc1ccc(COc2ccc(Cc3cnc(N)nc3N)cc2OC)cc1` + COc1cc(N2CCC(N3CCN(C)CC3)CC2)ccc1Nc1ncc(Cl)c(Nc2ccccc2S(=O)(=O)C(C)C)n1 [NVP-TAE684] (first compound 1 µM, partner dose 0.08 µM), for which the “cleaved PARP positive nuclei fraction” value was found to be 69.9%.

For the compound `COc1ccc2c(c1)CCC1C2CCC2(C)C(NCCCCCCN3C(=O)C=CC3=O)CCC12` (stereo unspecified) + c1cc(-c2cnn3cc(-c4ccc(OCCN5CCCCC5)cc4)cnc23)ccn1 [Dorsomorphin] (first compound 0.4 µM, partner dose 0.4 µM), the “cleaved PARP positive nuclei fraction” value came out at 85.7%. With `NCC(=O)Nc1ccc(-n2nc(C(F)(F)F)cc2-c2ccc3c(ccc4ccccc43)c2)cc1` + COc1ccc(COc2ccc(Cc3cnc(N)nc3N)cc2OC)cc1 [GW2580] (first compound 1 µM, partner dose 1 µM), the “cleaved PARP positive nuclei fraction” value came out at 72.3%. The figure for `COc1cc2ncnc(Nc3ccc(Oc4ccccc4)cc3)c2cc1OC` + COc1cc(N2CCC(N3CCN(C)CC3)CC2)ccc1Nc1ncc(Cl)c(Nc2ccccc2S(=O)(=O)C(C)C)n1 [NVP-TAE684] (first compound 2 µM, partner dose 0.08 µM) is 29.1%.
